Measured values taken from patent US20210292397A1 (LA TROBE UNIVERSITY, published 2021).
No constants are given. Whether binding was seen depends on the method and setting. Some entries that bind do so weakly or less than the wild type.

By UniProt entry, the sequences of proteins in these tests, tags left out. Where a name states a change or a piece, a line headed by the entry shows the natural chain unless it says otherwise. Chains listed by the source or under a name are the forms on record and can include a tag or linker. Residues count along the entry.
UniProt P02751: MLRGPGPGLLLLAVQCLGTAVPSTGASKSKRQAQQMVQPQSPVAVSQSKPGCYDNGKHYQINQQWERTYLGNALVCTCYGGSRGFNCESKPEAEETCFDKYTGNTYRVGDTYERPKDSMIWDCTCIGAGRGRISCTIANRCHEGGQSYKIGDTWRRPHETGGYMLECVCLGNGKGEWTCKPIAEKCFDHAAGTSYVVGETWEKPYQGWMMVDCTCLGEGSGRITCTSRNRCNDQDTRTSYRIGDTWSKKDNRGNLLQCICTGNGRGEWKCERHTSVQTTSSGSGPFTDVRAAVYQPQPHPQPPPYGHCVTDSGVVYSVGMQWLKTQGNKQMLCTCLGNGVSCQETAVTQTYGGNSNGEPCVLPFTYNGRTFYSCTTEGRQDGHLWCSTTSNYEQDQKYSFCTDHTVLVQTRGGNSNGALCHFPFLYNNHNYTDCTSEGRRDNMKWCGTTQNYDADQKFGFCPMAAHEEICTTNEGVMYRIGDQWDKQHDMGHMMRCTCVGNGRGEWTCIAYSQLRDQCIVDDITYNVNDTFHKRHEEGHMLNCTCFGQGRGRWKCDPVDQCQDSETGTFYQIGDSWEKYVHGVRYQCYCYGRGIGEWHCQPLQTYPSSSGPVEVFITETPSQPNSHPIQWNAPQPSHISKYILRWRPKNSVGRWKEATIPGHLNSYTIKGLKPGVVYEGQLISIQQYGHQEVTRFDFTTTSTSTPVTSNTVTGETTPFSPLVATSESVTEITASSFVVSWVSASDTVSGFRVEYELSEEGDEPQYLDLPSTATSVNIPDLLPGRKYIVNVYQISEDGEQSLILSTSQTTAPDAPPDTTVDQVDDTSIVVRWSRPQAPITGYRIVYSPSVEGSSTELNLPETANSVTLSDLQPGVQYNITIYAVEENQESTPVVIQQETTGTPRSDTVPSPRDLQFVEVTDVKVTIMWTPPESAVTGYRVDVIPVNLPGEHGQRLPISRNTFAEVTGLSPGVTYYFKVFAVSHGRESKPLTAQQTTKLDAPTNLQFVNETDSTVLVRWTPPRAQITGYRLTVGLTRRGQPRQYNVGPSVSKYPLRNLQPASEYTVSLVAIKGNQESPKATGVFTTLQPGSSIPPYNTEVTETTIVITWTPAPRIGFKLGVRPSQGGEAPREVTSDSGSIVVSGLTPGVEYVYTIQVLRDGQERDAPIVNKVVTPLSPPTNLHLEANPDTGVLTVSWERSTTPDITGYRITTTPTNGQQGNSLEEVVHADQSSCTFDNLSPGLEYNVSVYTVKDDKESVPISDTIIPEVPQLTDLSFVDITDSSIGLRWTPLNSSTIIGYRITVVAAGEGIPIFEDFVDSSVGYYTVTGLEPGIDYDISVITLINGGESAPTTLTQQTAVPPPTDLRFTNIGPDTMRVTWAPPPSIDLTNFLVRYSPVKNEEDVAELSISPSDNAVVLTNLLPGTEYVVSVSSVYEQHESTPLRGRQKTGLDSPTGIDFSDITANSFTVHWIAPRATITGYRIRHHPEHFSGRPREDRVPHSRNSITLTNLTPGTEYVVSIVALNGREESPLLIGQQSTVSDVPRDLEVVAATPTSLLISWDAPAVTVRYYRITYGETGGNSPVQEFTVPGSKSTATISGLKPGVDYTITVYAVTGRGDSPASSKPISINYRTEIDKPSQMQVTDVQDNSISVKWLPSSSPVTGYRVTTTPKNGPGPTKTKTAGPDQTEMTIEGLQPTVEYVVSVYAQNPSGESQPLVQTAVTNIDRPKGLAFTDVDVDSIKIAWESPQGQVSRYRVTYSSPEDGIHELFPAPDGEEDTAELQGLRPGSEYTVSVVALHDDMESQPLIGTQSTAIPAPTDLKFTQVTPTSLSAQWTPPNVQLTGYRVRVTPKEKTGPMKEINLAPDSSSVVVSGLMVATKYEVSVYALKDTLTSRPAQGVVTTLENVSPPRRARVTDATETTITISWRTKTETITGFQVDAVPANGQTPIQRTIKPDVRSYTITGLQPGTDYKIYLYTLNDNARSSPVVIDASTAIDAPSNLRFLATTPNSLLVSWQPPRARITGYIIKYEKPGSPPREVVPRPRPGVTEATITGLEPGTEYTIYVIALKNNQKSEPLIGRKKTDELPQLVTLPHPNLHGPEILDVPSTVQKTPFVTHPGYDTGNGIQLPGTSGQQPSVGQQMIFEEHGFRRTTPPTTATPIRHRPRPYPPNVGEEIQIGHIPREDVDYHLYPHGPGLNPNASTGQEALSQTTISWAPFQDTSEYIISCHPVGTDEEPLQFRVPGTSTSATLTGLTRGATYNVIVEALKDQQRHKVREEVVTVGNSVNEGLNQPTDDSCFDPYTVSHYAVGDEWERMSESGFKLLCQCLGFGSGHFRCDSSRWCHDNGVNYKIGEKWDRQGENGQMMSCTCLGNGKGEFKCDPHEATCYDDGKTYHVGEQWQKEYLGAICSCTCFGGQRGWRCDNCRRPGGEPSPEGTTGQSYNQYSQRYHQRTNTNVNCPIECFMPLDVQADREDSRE
human fibronectin: residues 32-2477 of P02751
70 kDa heparin/gelatin-binding fragment of human fibronectin (FnI1-9, FnII1-2): residues 32-608 of P02751
45 kDa gelatin-binding fragment of human fibronectin (FnI6-9, FnII1-2): residues 291-608 of P02751
120 kDa cell-binding fragment of human fibronectin (FnIII2-11) (P02751, form named): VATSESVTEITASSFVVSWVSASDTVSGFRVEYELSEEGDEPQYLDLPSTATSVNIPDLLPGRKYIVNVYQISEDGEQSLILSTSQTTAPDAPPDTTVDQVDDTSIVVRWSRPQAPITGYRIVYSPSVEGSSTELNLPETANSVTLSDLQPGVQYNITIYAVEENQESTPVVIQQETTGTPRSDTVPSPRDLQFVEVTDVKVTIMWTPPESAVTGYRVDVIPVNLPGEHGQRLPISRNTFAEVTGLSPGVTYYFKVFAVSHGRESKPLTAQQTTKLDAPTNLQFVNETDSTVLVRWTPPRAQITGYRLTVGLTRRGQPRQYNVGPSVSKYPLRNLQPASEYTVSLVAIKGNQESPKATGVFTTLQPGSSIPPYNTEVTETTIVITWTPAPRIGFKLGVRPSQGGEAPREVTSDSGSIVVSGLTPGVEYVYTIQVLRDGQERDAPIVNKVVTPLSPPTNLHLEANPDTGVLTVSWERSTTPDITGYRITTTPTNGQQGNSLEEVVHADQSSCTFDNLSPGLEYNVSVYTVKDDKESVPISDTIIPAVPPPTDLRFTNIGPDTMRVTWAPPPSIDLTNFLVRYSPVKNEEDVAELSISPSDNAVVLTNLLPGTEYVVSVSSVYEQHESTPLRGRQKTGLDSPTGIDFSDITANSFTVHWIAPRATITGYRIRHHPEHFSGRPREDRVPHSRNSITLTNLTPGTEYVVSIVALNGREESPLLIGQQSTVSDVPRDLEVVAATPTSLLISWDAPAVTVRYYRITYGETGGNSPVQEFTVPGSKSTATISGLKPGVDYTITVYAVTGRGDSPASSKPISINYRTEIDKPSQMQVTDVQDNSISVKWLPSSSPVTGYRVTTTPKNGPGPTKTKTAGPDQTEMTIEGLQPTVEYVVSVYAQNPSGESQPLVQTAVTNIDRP

Experiments:
[1] = target: 120 kDa cell-binding fragment of human fibronectin (FnIII2-11) (human) (UniProt P02751); assay: ELISA with fibronectin fragments
[2] = target: 45 kDa gelatin-binding fragment of human fibronectin (FnI6-9, FnII1-2) (human) (UniProt P02751); assay: ELISA with fibronectin fragments
[3] = target: 70 kDa heparin/gelatin-binding fragment of human fibronectin (FnI1-9, FnII1-2) (human) (UniProt P02751); assay: ELISA with fibronectin fragments
[4] = target: human fibronectin (human) (UniProt P02751); assay: ELISA against fibronectin, laminin and fibrinogen
[5] = target: human fibronectin (human) (UniProt P02751); assay: ELISA, absorbance at 405 nm, n=9, PBS as control
[6] = target: 120 kDa cell-binding fragment of human fibronectin (FnIII2-11) (human) (UniProt P02751); assay: ELISA of fibronectin fragments and full-length fibronectin with UpaB
[7] = target: 45 kDa gelatin-binding fragment of human fibronectin (FnI6-9, FnII1-2) (human) (UniProt P02751); assay: as above
[8] = target: 70 kDa heparin/gelatin-binding fragment of human fibronectin (FnI1-9, FnII1-2) (human) (UniProt P02751); assay: as above
[9] = target: human fibronectin (human) (UniProt P02751); assay: as above
[10] = target: human fibronectin (human) (UniProt P02751); assay: ELISA of fibronectin binding, detected with a fibronectin-specific polyclonal antibody

Measured: binding

B1: UpaB α-domain (α^UpaB) from UPEC strain CFT073 (other)
chain: TDSTVSTDPVTLNTEKTTLDQDVVINGDNKITAVTIETSDSDKDLNVTFGGHDITAASTVNQDFVEGVKVSGNKNVVINATDSTITAQGEGTYVRTAMVIDSTGDVVVNGGNFVAKNEKGSATGISLEATTGNNLTLNGTTINAQGNKSYSNGSTAIFAQKGNLLQGFDGDATDNITLADSNIINGGIETIVTAGNKTGIHTVNLNIKDGSVIGAANNKQTIYASASAQGAGSATQNLNLSVADSTIYSDVLALSESENSASTTTNVNMNVARSYWEGNAYTFNSGDKAGSDLDINLSDSSVWKGKVSGAGDASVSLQNGSVWNVTGSSTVDALAVKDSTVNITKATVNTGTFASQNGTLIVDASSENTLDISGKASGDLRVYSAGSLDLINEQTAFISTGKDSTLKATGTTEGGLYQYDLTQGADGNFYFVKNTHKASNASSVIQAMAAAPANVANLQADTL
notes: also called α^UPaB (native)
binds: all assays above
